The values below come from PMC11068889.

These are yes or no findings as the source states them, for the method shown. Binding seen in cells or lysates may run through a third protein. Some entries that bind do so weakly or less than the wild type.

This assay concerns the target T1, Disabled 2 (Dab2) (mouse (endogenous in primary keratinocytes)) (UniProt P98078).
T1 sequence: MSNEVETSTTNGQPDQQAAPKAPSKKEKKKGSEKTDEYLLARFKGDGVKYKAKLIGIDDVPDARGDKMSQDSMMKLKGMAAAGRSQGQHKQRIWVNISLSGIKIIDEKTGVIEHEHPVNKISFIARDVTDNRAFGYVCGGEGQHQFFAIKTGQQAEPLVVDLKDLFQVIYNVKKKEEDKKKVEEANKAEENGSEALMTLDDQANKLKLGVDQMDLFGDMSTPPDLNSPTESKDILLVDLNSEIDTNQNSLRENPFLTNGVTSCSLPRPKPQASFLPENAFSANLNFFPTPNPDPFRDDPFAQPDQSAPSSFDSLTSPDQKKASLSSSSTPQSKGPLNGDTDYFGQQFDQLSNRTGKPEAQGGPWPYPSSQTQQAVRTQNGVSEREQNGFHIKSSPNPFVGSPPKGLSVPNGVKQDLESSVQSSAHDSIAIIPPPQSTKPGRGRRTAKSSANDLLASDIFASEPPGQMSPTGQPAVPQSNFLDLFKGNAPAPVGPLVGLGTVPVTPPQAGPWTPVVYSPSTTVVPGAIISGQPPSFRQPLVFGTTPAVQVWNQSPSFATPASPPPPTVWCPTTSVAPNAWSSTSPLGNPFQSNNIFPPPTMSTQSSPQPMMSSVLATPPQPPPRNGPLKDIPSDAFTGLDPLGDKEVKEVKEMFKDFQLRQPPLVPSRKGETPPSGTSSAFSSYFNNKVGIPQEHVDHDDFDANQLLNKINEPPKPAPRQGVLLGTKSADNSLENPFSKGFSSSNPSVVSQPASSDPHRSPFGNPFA
Kind of assay: co-IP; WT mouse primary keratinocyte lysate in IP lysis buffer (150 mM NaCl, 25 mM Tris-HCl pH 7.9, 5 mM MgCl2, 10% glycerol, 0.2 mM EDTA, 0.1% NP-40); anti-Dab2 antibody or control IgG overnight, Protein A/G agarose beads 4 h at 4 °C; immunoblotting. (In general: A western blot detects proteins with antibodies after separation by electrophoresis.)

B1: Dvl2 (protein, UniProt Q60838 1-736)
chain: MAGSSAGGGGVGETKVIYHLDEEETPYLVKIPVPAERITLGDFKSVLQRPAGAKYFFKSMDQDFGVVKEEISDDNARLPCFNGRVVSWLVSSDTPQPEVAPPAHESRTELVPPPPPLPPLPPERTSGIGDSRPPSFHPNVSSSHENLEPETETESVVSLRRDRPRRRDSSEHGAGGHRPGGPSRLERHLAGYESSSTLMTSELESTSLGDSDEDDTMSRFSSSTEQSSASRLLKRHRRRRKQRPPRMERTSSFSSVTDSTMSLNIITVTLNMEKYNFLGISIVGQSNERGDGGIYIGSIMKGGAVAADGRIEPGDMLLQVNDMNFENMSNDDAVRVLRDIVHKPGPIVLTVAKCWDPSPQAYFTLPRNEPIQPIDPAAWVSHSAALTGAFPAYPGSSSMSTITSGSSLPDGCEGRGLSVHMDMASVTKAMAAPESGLEVRDRMWLKITIPNAFLGSDVVDWLYHHVEGFPERREARKYASGLLKAGLIRHTVNKITFSEQCYYVFGDLSGGCESYLVNLSLNDNDGSSGASDQDTLAPLPGATPWPLLPTFSYQYPAPHPYSPQPPPYHELSSYTYGGGSASSQHSEGSRSSGSTRSDGGAGRTGRPEERAPESKSGSGSESELSSRGGSLRRGGEPGGTGDGGPPPSRGSTGAPPNLRALPGLHPYGAPSGMALPYNPMMVVMMPPPPPPVSTAVQPPGAPPVRDLGSVPPELTASRQSFHMAMGNPSEFFVDVM
For B1, the binding result is on record as “binds”.
